The values that follow come from paper PMC10449786.

Assay [1] concerns the target T1, mouse serum amyloid A3 (SAA3) (mouse (endogenous in lung tissue)) (UniProt P04918).
T1 sequence: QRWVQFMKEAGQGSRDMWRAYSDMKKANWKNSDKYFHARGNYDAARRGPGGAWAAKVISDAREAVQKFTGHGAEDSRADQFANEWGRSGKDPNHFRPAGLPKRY
Put plainly: co-IP; anti-SAA3 antibody immunoprecipitation of lung lysate from tumor-bearing (LLC) mice; lysis buffer 50 mM Hepes pH 7.4, 0.5% Triton X-100, 0.5% sodium cholate, 150 mM NaCl; western blot with anti-Fbg and anti-citrulline. For orientation: In western blotting, separated proteins are transferred to a membrane and probed.

Assay [2] addresses human fibrinogen (hFbg) (human). Kind of assay: dynamic light scattering; 50 mM Hepes pH 7.7, 150 mM NaCl, 1 mg/mL; proteins mixed immediately before measurement; hFbg and hCitFbg with and without hSAA1; both purified.
For assay [3] the target is unchanged. Put plainly: ELISA; Fbg or citrullinated Fbg coated (0.8 μg/mL in PBS, overnight 4 °C); recombinant SAA 10–2000 ng/mL added, 1 h at 37 °C; detected with anti-hSAA1; apparent Kd; both purified.
Assay [4] has the same target. Kind of assay: SEC; Superdex 200 Increase 10/300 GL, 50 mM Hepes pH 7.7, 150 mM NaCl; hSAA1, hFbg, hCitFbg alone and mixed; Fbg peak fraction (fraction 4) analysed by western blot; both purified. Background: SEC sorts molecules by how far they enter the pores of the column.

No constants are given. Whether binding was seen depends on the method and setting. A result given as binding can be weak or reduced; the word gives no strength. For some of these results: In cells and extracts the contact can be indirect.

As to mouse fibrinogen (complex), the binding entry in assay [1] is reported as “binds”.

B1: recombinant human serum amyloid A1 (hSAA1) (protein, UniProt P0DJI8 19-122)
chain: RSFFSFLGEAFDGARDMWRAYSDMREANYIGSDKYFHARGNYDAAKRGPGGAWAAEVITDARENIQRFFGHGAEDSLADQAANEWGRSGKDPNHFRPAGLPEKY
For B1, the binding result in assay [2], in assay [3] and in assay [4] was “binds” throughout.
